The campaign covered roughly 580,000 compounds. About 6,100 (1.1%) were called active. Inconclusive means that the source gave no clear call. Such entries were picked first, then a sample of the others. The call rests on the fitted dose curve; in most records, active means well fitted inhibition curve with a large enough effect; inconclusive means small, poorly fitted or top-dose-only effect, or another doubt; inactive means no such curve, though single readings can be large or run the other way. Potencies beside an inconclusive call are fits to weak or partial responses and may not hold up.
target: Polyunsaturated fatty acid lipoxygenase ALOX12 (Homo sapiens) (UniProt P18054); assay: Primary qHTS assay for inhibitors of human arachidonate 12S-lipoxygenase (ALOX12): Round 2; conditions: purified 12hLO, xylenol orange hydroperoxide absorbance; activity change, negative = inhibition: at 108 µM (top of the series) unless noted
Summary of the method: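 Purified human 12hLO at 150 nM in 25 mM Hepes, 0.01% Triton X-100, pH 7.0, preincubated 15 min at room temperature with compound. Reaction started with 40 uM arachidonic acid, 30 min at room temperature. Hydroperoxide measured by Fe-xylenol orange, 573/405 nm absorbance ratio.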
On the % scale 0 is the no-effect control and ±100 the full control effect; potency means the concentration at half of the fitted maximal effect.

Sequences of proteins named here, by UniProt entry; tags and fusion partners are left off. A change or cut given only in a name is not applied to a line headed by its entry.
UniProt P18054: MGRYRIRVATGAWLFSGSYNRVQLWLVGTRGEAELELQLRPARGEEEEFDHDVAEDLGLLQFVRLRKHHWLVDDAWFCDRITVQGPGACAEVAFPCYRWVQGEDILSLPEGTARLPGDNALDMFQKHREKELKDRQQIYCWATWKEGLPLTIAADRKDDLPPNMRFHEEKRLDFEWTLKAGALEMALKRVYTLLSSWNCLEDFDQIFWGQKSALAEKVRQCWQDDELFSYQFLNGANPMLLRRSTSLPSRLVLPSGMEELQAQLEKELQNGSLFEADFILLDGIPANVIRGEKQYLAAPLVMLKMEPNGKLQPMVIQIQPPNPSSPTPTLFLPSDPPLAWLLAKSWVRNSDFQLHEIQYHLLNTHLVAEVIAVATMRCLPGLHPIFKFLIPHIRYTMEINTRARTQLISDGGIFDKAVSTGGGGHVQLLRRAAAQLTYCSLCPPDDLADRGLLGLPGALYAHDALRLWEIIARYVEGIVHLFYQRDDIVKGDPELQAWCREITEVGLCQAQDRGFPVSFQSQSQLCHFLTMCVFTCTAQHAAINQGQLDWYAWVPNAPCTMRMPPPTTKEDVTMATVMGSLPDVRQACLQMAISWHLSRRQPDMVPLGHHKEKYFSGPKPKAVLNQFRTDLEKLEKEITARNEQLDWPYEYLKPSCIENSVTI

| Structure (SMILES) | Potency | activity change, negative = inhibition |
| --- | --- | --- |
| COc1cc(CNC(=O)CCCCC=CC(C)C)ccc1O | inconclusive: 89.1 µM [inhibitor, single point] | – |
| CCOC(=O)C1=C(C)NC(C)=C(C(=O)OCC)C1C(=O)OCC(=O)NC1CCCCC1 | – | inactive: -1.2% |
| CC(C)c1ccc(C2CC(=O)N3CN(Cc4ccco4)CSC3=C2C#N)cc1 (centres undefined) | inconclusive: 7.08 µM [inhibitor, full curve, poor fit] | – |
| CC(C)c1nnc(NC(=O)CCS(=O)(=O)Cc2ccccc2)s1 | inconclusive: 0.562 µM [inhibitor, full curve, poor fit] | – |
| CCOC(=O)c1sc(NC(=O)C2c3ccccc3Oc3ccccc32)c(C#N)c1C | inconclusive: 112 µM [inhibitor, partial curve, poor fit] | – |
| COCCC(=O)NCC1Cc2cc(Cl)cc(-c3ccc4[nH]ccc4c3)c2O1 (centres undefined) | inconclusive: 100 µM [inhibitor, single point] | – |
| CC1CCc2c(sc3ncnc(NCCN4CCOCC4)c23)C1 (centres undefined) | – | inactive: 15.8% [at 57.4 µM] |
| COc1ccc(C(NC(=O)c2cc(OC)ccc2OC)c2ccccc2)cc1 (centres undefined) | inconclusive: 141 µM [inhibitor, single point] | – |
| COc1cc(OC)c(C2Nc3cccc4cccc(c34)N2)c(OC)c1 | inconclusive: 50.1 µM [inhibitor, partial curve, poor fit] | – |
| Cn1c(=S)c2[nH]c(SCc3cccnc3)nc2n(C)c1=O | active: 3.16 µM | – |
| Cc1cc2nc(C(C)(C)C)c(Cc3ccccc3C(F)(F)F)n2c(C)c1Br | inconclusive: 126 µM [inhibitor, single point] | – |
| O=C(Nc1ccccc1Cl)c1cc(C2CCCN(C(=O)C3CCCCC3)C2)on1 (centres undefined) | inconclusive: 63.1 µM [inhibitor, partial curve, poor fit] | – |
| O=C(C1CCOCC1)N1CC(Oc2cccc(-c3nc(-c4ccccc4)no3)c2)C1 | inconclusive: 89.1 µM [inhibitor, single point] | – |
| Cc1nn(Cc2ccc([N+](=O)[O-])cc2)c(=O)n1-c1ccc(Cl)cc1 | – | inactive: 2.56% |
| CCSc1cc(C2C(C#N)=C(N)OC(C)=C2C(=O)OC)c(C)o1 (centres undefined) | inconclusive: 31.6 µM [inhibitor, partial curve, poor fit] | – |
| Cn1c(=O)c2cc(NC(=O)NCCc3cccs3)ccc2n1Cc1cccc(C(F)(F)F)c1 | inconclusive: 2.82 µM [inhibitor, full curve, poor fit] | – |
| Cc1nc2ccccn2c1C(=O)N/N=C/c1ccc([N+](=O)[O-])o1 | – | inactive: -26.2% |
| Nc1nc(Nc2ccc(Cl)cc2)nc(NCCO)c1[N+](=O)[O-] | inconclusive: 112 µM [inhibitor, single point] | – |
| CCn1c(-c2cccn(Cc3ccc(Cl)cc3Cl)c2=O)n[nH]c1=S | – | inactive: -3.45% |
| Cc1ccc(-c2nc(C(=O)N3CCN(c4ccc(C)cc4C)CC3)no2)cc1 | – | inactive: 34.4% |
| CCN(C[C@H]1N[C@@](CC)(C(=O)OC)[C@H]2C(=O)N(Cc3ccccc3)C(=O)[C@@H]12)C(C)=O | – | inactive: -19.7% |
| O=c1ncn(Cc2ccccc2)c2ccc(-c3ccc(F)cc3F)nc12 | – | inactive: 65.7% [at 176 µM] |

| Structure (SMILES) | Potency | activity change, negative = inhibition |
| --- | --- | --- |
| O=C1CC(N2CCC(c3nc4ccccc4o3)CC2)C(=O)N1c1ccc(F)c(Cl)c1 (centres undefined) | inconclusive: 2.51 µM [inhibitor, full curve, poor fit] | – |
| CCOc1ccc(C(=O)NCC(=O)Nc2cc(C)ccn2)cc1OCC | inconclusive: 112 µM [inhibitor, single point] | – |
| CCCc1nnc2n1N=C(c1ccc([N+](=O)[O-])cc1)CS2 | inconclusive: 39.8 µM [inhibitor, partial curve, poor fit] | – |
| Cc1ccc(C(OCC(O)CNC(C)c2ccccc2)c2ccccc2)cc1 (centres undefined) | inconclusive: 3.98 µM [inhibitor, full curve, poor fit] | – |
| OCc1ccccc1-c1nc(NCc2ccccc2)nc2ccsc12 | active: 14.1 µM | – |
| N=c1oc2cc(O)ccc2cc1C(=O)Nc1ccc(F)cc1 | – | inactive: -1.97% |
| Cn1cccc1/C=C1/SC(=O)N(CC(=O)N2CCCC2)C1=O | inconclusive: 44.7 µM [inhibitor, partial curve, poor fit] | – |
| C[n+]1c2n(c3ccccc31)N=C(c1cc(C(C)(C)C)c(O)c(C(C)(C)C)c1)CS2 | active: 28.2 µM | – |
| CO[C@@H]1CO[C@H]2[C@@H]1OC[C@@H]2NC(=O)C1CCC1 | inconclusive: 35.5 µM [inhibitor, full curve, poor fit] | – |
| O=C(O)c1ccccc1/C=N/Nc1ccc(S(=O)(=O)Nc2ccc(Cl)cc2)cc1[N+](=O)[O-] | inconclusive: 39.8 µM [inhibitor, partial curve, poor fit] | – |
| Cc1ccc(C(=O)NC(=S)c2c(C)cc3ccccn23)cc1 | active: 7.94 µM | – |
| COc1ccc(/C=N/NC(=O)c2nnn(-c3nonc3N)c2C)cc1OC | inconclusive: 3.16 µM [inhibitor, full curve, poor fit] | – |
| O=C(O)CCCCCNC(=O)c1cccc(Br)c1 | – | inactive: 0% |
| O=C(C[C@H]1C[C@H](C(=O)N2CCOCC2)[C@@]2(CCC3CCCC3)c3[nH]c4cc(-c5ccco5)ccc4c3CCN2C1=O)NCC12CC3CC(CC(C3)C1)C2 | inconclusive: 10 µM [inhibitor, full curve] | – |
| CN1Cc2ncnc(N3CCN(Cc4ccccc4)CC3)c2CN(c2ccc([N+](=O)[O-])cc2)C1=O | inconclusive: 50.1 µM [inhibitor, partial curve, poor fit] | – |
| COC(=O)C1=C(N)Oc2c(oc(CO)cc2=O)C1c1ccc(F)cc1 (centres undefined) | inconclusive: 7.94 µM [inhibitor, full curve, poor fit] | – |
| O=C1CCN=C(S/C(=C/c2ccc(Cl)cc2)C(=O)O)N1 | inconclusive: 39.8 µM [inhibitor, partial curve] | – |
| COc1ccc(Nc2c3ccccc3nc3ccccc23)cc1 | inconclusive: 126 µM [inhibitor, single point] | – |
| CSCCC(NC(=O)c1cc(CC(C)C)oc1C)C(=O)O (centres undefined) | inconclusive: 0.178 µM [inhibitor, full curve, poor fit] | – |
| O=C(C1CCCO1)N1CCN(Cc2c(O)ccc3ccccc23)CC1 (centres undefined) | inconclusive: 1 µM [inhibitor, full curve, poor fit] | – |
| CCc1cc2c(NCC3CCCO3)nc(C)nc2s1 (centres undefined) | inconclusive: 39.8 µM [inhibitor, partial curve, poor fit] | – |
| Cc1ccc(S(=O)(=O)N2CCN(CC(=O)N3CCCC3)CC2)c(C)c1 | – | inactive: 310% |

In a second layout: 5 of the compounds above.
Structure (SMILES),Potency,"activity change, negative = inhibition"
C[n+]1c2n(c3ccccc31)N=C(c1cc(C(C)(C)C)c(O)c(C(C)(C)C)c1)CS2,active: 28.2 µM,–
CO[C@@H]1CO[C@H]2[C@@H]1OC[C@@H]2NC(=O)C1CCC1,"inconclusive: 35.5 µM [inhibitor, full curve, poor fit]",–
O=C(O)c1ccccc1/C=N/Nc1ccc(S(=O)(=O)Nc2ccc(Cl)cc2)cc1[N+](=O)[O-],"inconclusive: 39.8 µM [inhibitor, partial curve, poor fit]",–
Cc1ccc(C(=O)NC(=S)c2c(C)cc3ccccn23)cc1,active: 7.94 µM,–
COc1ccc(/C=N/NC(=O)c2nnn(-c3nonc3N)c2C)cc1OC,"inconclusive: 3.16 µM [inhibitor, full curve, poor fit]",–

Next results:

| Structure (SMILES) | Potency | activity change, negative = inhibition |
| --- | --- | --- |
| Clc1ccc(-c2noc(C34CC5CC(CC(C5)C3)C4)n2)cc1 | – | inactive: 55.1% |
| CC(=O)Nc1ccc(-c2ccnc3c2CC(C(=O)Nc2cccc(N(C)C)c2)O3)cc1 (centres undefined) | inconclusive: 126 µM [inhibitor, single point] | – |
| COc1ccc(Nc2nc(C(=O)N(CCO)Cc3ccccc3)cs2)cc1 | inconclusive: 50.1 µM [inhibitor, partial curve, poor fit] | – |
| N#C/C(=N/Nc1ccc(OC(F)(F)F)cc1)C(N)=S | inconclusive: 3.98 µM [inhibitor, full curve, poor fit] | – |
| Cc1cc(O)c(N=Cc2cc3c(cc2[N+](=O)[O-])OCO3)cc1C | inconclusive: 39.8 µM [inhibitor, partial curve, poor fit] | – |
| Cc1ccc(CN2CCN(Cc3ccc(-n4cccn4)cc3C)CC2CCO)cc1 (centres undefined) | – | inactive: 8.91% |
| COc1ccc(-c2nnc(SCCOc3ccc(Cl)cc3Cl)n2C(C)C)cc1 | inconclusive: 50.1 µM [inhibitor, partial curve, poor fit] | – |
| CCOC(=O)c1cc(-c2ccc(OC)cc2)n(CCC(=O)NCc2ccc(OC)cc2)c1C | – | inactive: 0% |
| Cc1c(CN2CCCC(C)C2)c(O)n(CCO)c(=O)c1C#N (centres undefined) | inconclusive: 44.7 µM [inhibitor, partial curve, poor fit] | – |
| Cc1ccc(NC(=S)N2CCC(c3ccc(C)cc3)C2)cc1 (centres undefined) | inconclusive: 56.2 µM [inhibitor, partial curve, poor fit] | – |
| COc1cc(C(=O)N2CCN(S(=O)(=O)c3ccc(C(C)C)cc3)CC2)ccc1OCC(=O)N1CCOCC1 | inconclusive: 25.1 µM [inhibitor, single point] | – |
| CC(C)Oc1cccc(C(=O)Nc2cc(Cl)cc(Cl)c2)c1 | inconclusive: 63.1 µM [inhibitor, partial curve, poor fit] | – |
| O=C1C2CCCN2C(=O)N1CCCCN1CCN(c2cccc(Cl)c2)CC1 (centres undefined) | inconclusive: 44.7 µM [inhibitor, partial curve] | – |
| CCOc1ccc(NC(=O)CN(C)C(=O)c2cc(S(=O)(=O)N3CCCCC3)ccc2C)cc1OCC | inconclusive: 141 µM [inhibitor, partial curve, poor fit] | – |
| O=C(NCc1ccccc1)Oc1cccc(Cl)c1 | – | inconclusive: -40.1% [inhibitor] |
| Cc1c(C)n(-c2cccc(F)c2)c2ncnc(Cl)c12 | inconclusive: 89.1 µM [inhibitor, partial curve, poor fit] | – |
| COc1cc(CN2CCN(c3noc(C(C)C)n3)CC2CCO)cc(OC)c1 (centres undefined) | inconclusive: 10 µM [inhibitor, partial curve, poor fit] | – |
| CS(=O)(=O)Nc1cccc(C2=NN(C(=O)c3ccco3)C(c3ccco3)C2)c1 (centres undefined) | inconclusive: 50.1 µM [inhibitor, partial curve, poor fit] | – |
| CC(C)(CNC(=O)C1CCCCC1)CNC(=O)C1CCCCC1 | – | inactive: 2.05% |
| CC(C)(C)C(=O)COC(=O)c1cc(-c2ccccc2)c(N2CCOCC2)s1 | inconclusive: 112 µM [inhibitor, single point] | – |
